38 compounds from PubChem BioAssay AID2685 (National Center for Advancing Translational Sciences (NCATS), 2010) can be followed below.

This is one part of the list. Further columns of the screen follow, without active or inactive calls. The list favours compounds with an active or inconclusive main result. Potencies come from curve fits of mixed quality, noted in brackets.

The nature of the test: qHTS Assay for Lipid Storage Modulators in Drosophila S3 Cells.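 As to cell number change: cells counted by Cell Tracker Red CMTPX staining in the red channel.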 Particulars: BODIPY lipid droplet fluorescence, 18-24 h; for cell number change: measured here: cell count max response, cells fed with added oleic acid. The method, boiled down: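 Drosophila S3 cells loaded with oleic acid (400 uM, as added) and compounds at several concentrations; lipid droplets imaged by 488-nm laser-scanning cytometry, 500–530 nm intensity and object ratio to cell channel. Percent activity normalized to 20 uM Triacsin C.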
Background: qHTS replaces the single test concentration by a dilution series.

[1] abbreviates: measured here: cell number channel AC50, cells fed with added oleic acid.
Setting [2] is: measured here: lipid fluorescence (Fed channel) AC50, cells fed with added oleic acid.

For the compound `CCOc1ccc(NC(=O)CSc2nnc(NC(=O)C3CC3)s2)cc1`, the cell number change turned out to be 19.6%. Also, under setting [1], the concentration at half-maximal activity (AC50) (usually the concentration at which the activity in the assay is half-maximal) was 731 nM [rising, full curve, poor fit].

As for `CCCCCc1cc(=O)oc2c(C(CCN3CCCCC3)c3ccc(OC)cc3)c(OC)cc(OC)c12` (stereo not given), the cell number change is -38.5%. Also, the AC50 under setting [1] was 25900 nM [falling, single point]. Moreover, under setting [2], the half-maximal activity concentration (AC50) is 20600 nM [falling, single point].

In the case of `Cc1nc(SCC(N)=O)c(C#N)c(C)c1C`, the cell number change was 16.7%. Moreover, under setting [2], the half-maximal activity concentration (AC50) was 580 nM [rising, full curve].

Regarding `CCNS(=O)(=O)c1cc(OC)ccc1OC`, the cell number change was -31.8%. Further, the half-maximal activity concentration (AC50) under setting [1] is 6510 nM [falling, partial curve, poor fit]. Moreover, the AC50 under setting [2] is 29100 nM [falling, single point].

As for `O=C(CSc1nc(=O)n(CCCN2CCOCC2)c2c1CCC2)Nc1ccc(F)cc1`, the AC50 under setting [1] is 461 nM [falling, single point].

As to `Cc1cc(NC(=O)c2cccc(S(=O)(=O)N3CC(c4ccccc4)CC3=O)c2)no1` (stereo not given), the AC50 under setting [1] was 1160 nM [rising, partial curve].

`CSc1ccccc1C(=O)Nc1ccc2c(c1)OCO2`: the cell number change came to 20.8%. For the same compound, the half-maximal activity concentration (AC50) under setting [2] is 29100 nM [rising, single point].

For the compound `COC(=O)c1ccc(=O)n(CC(=O)c2ccc(Cl)cc2)c1`, the half-maximal activity concentration (AC50) under setting [2] is 580 nM [rising, partial curve, poor fit].

`CCOC(=O)C1(CC2CCCCO2)CCN(C(=O)Nc2ccc(SC)cc2)CC1` (stereo not given): the cell number change was -13.7%. Further, the AC50 under setting [2] is 18400 nM [falling, partial curve, poor fit].

For the compound `Cc1nn(Cc2ccc(F)cc2)c(C)c1NC(=O)CCCn1nc([N+](=O)[O-])cc1C`, the cell number change is -30.3%. The AC50 under setting [1] was 8200 nM [falling, partial curve].

In the case of `O=C(Cn1nnc2ccccc2c1=O)Nc1cccc(S(=O)(=O)N2CCOCC2)c1`, the AC50 was 130 nM [rising, single point] under setting [1] and 116 nM [rising, single point] under setting [2].

With `COc1ccc(Cl)cc1N1C(=O)c2cccnc2C1=O`, the cell number change turned out to be 4.93%. In addition, under setting [2], the concentration at half-maximal activity (AC50) was 6510 nM [rising, single point].

`Cc1ccc(NC(=O)c2c(C(F)(F)F)nn(C)c2SCc2ccc(Cl)cc2)cc1C`: the cell number change was 0.0649%.

For the compound `O=C(CN1CCN(C(=O)C2CC2)CC1)Nc1cc(C(F)(F)F)cc(C(F)(F)F)c1`, the cell number change is -6.47%. Also, the AC50 under setting [2] was 16400 nM [falling, single point].

With `O=C(NC1(C(F)(F)F)NC(=O)N(CC2CCCCC2)C1=O)c1ccco1` (stereo not given), the cell number change amounted to 1.82%.

Turning to `COc1ccc(CCn2c(-c3ccc(F)cc3)nc3c(c(=O)c4ccccc4n3C)c2=O)cc1OC`, the cell number change was -24.1%. Also, the half-maximal activity concentration (AC50) under setting [2] is 16400 nM [falling, single point].

Consider `COC(=O)C(C)Sc1ccc2nnc(CCNS(=O)(=O)c3ccc(C)cc3)n2n1` (stereo not given), for which the cell number change was 0.283%. The AC50 under setting [1] was 731 nM [falling, single point].

On to `CC1CCc2c(sc3ncn(CCO)c(=O)c23)C1` (stereo not given), for which the cell number change amounted to 99%. Moreover, the AC50 under setting [1] was 16400 nM [rising, partial curve]. Further, the AC50 under setting [2] is 20600 nM [rising, partial curve].

Turning to `COc1ccc(-c2ccc(SCC(=O)NCC3CCCO3)nn2)cc1OC` (stereo not given), the cell number change turned out to be 63.3%.

For the compound `CCN(CC)C(=O)c1[nH]cnc1C(=O)N[C@@H](Cc1ccccc1)C(=O)OC(C)(C)C`, the cell number change is 24.3%. In addition, under setting [2], the concentration at half-maximal activity (AC50) was 820 nM [falling, single point].

Take `Cc1ccc(NC(=O)C2CCN(C(=O)c3ccco3)CC2)cc1C`: the cell number change was -6.41%. Under setting [2], the AC50 is 5170 nM [rising, single point].

As to `CC(=O)Nc1ccc(N(C(=O)c2ccco2)C(C(=O)NC2CCCC2)c2ccncc2)cc1` (stereo not given), the cell number change was 10%. The AC50 under setting [2] is 92 nM [falling, full curve, poor fit].

As to `COC(=O)c1cc(NC(=O)c2ccccc2)c(=O)oc1C/C=N\OCc1ccc(Cl)cc1Cl`, the cell number change is -4.23%. In addition, the AC50 under setting [1] was 146 nM [falling, full curve, poor fit].

Turning to `COc1ccccc1CN(C)CC(=O)Nc1ccc(Cl)cc1F`, the cell number change came to 19.6%.

Consider `Cc1cc(OCC(=O)Nc2c(C)n(C)n(-c3ccccc3)c2=O)ccc1[N+](=O)[O-]`, for which the cell number change was found to be 38.1%. Also, the half-maximal activity concentration (AC50) under setting [1] is 29100 nM [rising, single point].

For the compound `COc1ccccc1-n1cnnc1SCC(=O)Nc1ccccc1`, the cell number change was 4.2%. The half-maximal activity concentration (AC50) under setting [2] is 29100 nM [rising, single point].

Consider `O=C(CN(Cc1ccco1)S(=O)(=O)c1ccccc1)N/N=C/c1ccccc1C(=O)O`, for which the cell number change is -2.63%. In addition, the concentration at half-maximal activity (AC50) under setting [2] is 116 nM [falling, full curve, poor fit].

Regarding `Cc1ccc(S(=O)(=O)N(C)CCCC(=O)N2CCOCC2)cc1`, the cell number change was -20.8%. Besides, under setting [2], the AC50 was 820 nM [falling, full curve].

As to `O=C(NCCN1CCOCC1)c1ccc(CSc2nc3ccncc3n2Cc2ccc(F)cc2)cc1`, the cell number change was -0.578%. For the same compound, the concentration at half-maximal activity (AC50) under setting [2] is 580 nM [rising, full curve, poor fit].

Turning to `CN(CC(=O)Nc1cccc(F)c1)C(=O)/C=C/c1cc(Br)ccc1OC(F)F`, the cell number change came out at 93.9%. In addition, the AC50 under setting [1] was 16400 nM [rising, partial curve].

Take `COc1ccc(-c2cc(-c3ccccc3)n[nH]2)c(O)c1`: the cell number change was -44.9%. In addition, the AC50 under setting [1] was 820 nM [falling, full curve, poor fit].

`CCC(C)/C(C)=N/NC(=O)CSc1nc2ccccc2[nH]1` (stereo not given): the AC50 runs as follows: under setting [1], 1460 nM [rising, single point]; under setting [2], 1460 nM [rising, partial curve].

Take `CN1C(=O)N(C)c2cccc3cccc1c23`: the cell number change amounted to 25.4%.

With `O=C(Nc1nc(-c2cccnc2)cs1)c1ccccc1Cl`, the AC50 is, setting by setting: under setting [1], 1460 nM [rising, single point]; under setting [2], 6510 nM [rising, single point].

As to `Nc1nnc(-c2cc3c(ccc4ccccc43)oc2=O)s1`, the cell number change was determined as 16.7%. The AC50 under setting [1] was 103 nM [rising, full curve, poor fit]. Further, under setting [2], the AC50 is 116 nM [rising, full curve, poor fit].

For the compound `COC(=O)C1CCN(CC(=O)N(C)c2c(N)n(Cc3ccccc3)c(=O)[nH]c2=O)CC1`, the cell number change turned out to be 8.54%.

As to `COc1ccc(/C=C/C(=O)OC(C)C(=O)c2ccccc2)cc1OC` (stereo not given), the half-maximal activity concentration (AC50) under setting [2] is 9200 nM [rising, partial curve].

For `CCOC(=O)[C@@H]1[C@H]2COc3ccc(Br)cc3[C@@H]2N2C(=O)N(c3ccc(C)cc3)C(=O)[C@]12C`, the cell number change was 27.2%. Further, the concentration at half-maximal activity (AC50) under setting [2] was 6510 nM [rising, single point].
